Reference: publication PMC11341699
No constants are given. Whether binding was seen depends on the method and setting. Binding seen in cells or lysates may run through a third protein. Some entries that bind do so weakly or less than the wild type. Each block holds one substance with its values, some of them ahead of it.

Sequences of proteins named here, by UniProt entry; tags and fusion partners are left off. A change or cut given only in a name is not applied to a line headed by its entry.
UniProt Q3TJD7: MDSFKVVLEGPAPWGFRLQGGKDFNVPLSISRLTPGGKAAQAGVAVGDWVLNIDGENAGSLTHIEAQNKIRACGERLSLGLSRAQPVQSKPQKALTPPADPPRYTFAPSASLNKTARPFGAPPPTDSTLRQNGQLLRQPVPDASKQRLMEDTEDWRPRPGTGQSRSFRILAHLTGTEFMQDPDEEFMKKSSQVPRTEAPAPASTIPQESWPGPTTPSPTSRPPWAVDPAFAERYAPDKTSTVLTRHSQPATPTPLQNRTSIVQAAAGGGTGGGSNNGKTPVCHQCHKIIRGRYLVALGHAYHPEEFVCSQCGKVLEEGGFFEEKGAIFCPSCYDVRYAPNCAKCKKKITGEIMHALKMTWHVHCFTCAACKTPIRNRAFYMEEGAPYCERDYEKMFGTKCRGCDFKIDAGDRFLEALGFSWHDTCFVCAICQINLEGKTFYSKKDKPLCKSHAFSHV
UniProt Q7TPH6: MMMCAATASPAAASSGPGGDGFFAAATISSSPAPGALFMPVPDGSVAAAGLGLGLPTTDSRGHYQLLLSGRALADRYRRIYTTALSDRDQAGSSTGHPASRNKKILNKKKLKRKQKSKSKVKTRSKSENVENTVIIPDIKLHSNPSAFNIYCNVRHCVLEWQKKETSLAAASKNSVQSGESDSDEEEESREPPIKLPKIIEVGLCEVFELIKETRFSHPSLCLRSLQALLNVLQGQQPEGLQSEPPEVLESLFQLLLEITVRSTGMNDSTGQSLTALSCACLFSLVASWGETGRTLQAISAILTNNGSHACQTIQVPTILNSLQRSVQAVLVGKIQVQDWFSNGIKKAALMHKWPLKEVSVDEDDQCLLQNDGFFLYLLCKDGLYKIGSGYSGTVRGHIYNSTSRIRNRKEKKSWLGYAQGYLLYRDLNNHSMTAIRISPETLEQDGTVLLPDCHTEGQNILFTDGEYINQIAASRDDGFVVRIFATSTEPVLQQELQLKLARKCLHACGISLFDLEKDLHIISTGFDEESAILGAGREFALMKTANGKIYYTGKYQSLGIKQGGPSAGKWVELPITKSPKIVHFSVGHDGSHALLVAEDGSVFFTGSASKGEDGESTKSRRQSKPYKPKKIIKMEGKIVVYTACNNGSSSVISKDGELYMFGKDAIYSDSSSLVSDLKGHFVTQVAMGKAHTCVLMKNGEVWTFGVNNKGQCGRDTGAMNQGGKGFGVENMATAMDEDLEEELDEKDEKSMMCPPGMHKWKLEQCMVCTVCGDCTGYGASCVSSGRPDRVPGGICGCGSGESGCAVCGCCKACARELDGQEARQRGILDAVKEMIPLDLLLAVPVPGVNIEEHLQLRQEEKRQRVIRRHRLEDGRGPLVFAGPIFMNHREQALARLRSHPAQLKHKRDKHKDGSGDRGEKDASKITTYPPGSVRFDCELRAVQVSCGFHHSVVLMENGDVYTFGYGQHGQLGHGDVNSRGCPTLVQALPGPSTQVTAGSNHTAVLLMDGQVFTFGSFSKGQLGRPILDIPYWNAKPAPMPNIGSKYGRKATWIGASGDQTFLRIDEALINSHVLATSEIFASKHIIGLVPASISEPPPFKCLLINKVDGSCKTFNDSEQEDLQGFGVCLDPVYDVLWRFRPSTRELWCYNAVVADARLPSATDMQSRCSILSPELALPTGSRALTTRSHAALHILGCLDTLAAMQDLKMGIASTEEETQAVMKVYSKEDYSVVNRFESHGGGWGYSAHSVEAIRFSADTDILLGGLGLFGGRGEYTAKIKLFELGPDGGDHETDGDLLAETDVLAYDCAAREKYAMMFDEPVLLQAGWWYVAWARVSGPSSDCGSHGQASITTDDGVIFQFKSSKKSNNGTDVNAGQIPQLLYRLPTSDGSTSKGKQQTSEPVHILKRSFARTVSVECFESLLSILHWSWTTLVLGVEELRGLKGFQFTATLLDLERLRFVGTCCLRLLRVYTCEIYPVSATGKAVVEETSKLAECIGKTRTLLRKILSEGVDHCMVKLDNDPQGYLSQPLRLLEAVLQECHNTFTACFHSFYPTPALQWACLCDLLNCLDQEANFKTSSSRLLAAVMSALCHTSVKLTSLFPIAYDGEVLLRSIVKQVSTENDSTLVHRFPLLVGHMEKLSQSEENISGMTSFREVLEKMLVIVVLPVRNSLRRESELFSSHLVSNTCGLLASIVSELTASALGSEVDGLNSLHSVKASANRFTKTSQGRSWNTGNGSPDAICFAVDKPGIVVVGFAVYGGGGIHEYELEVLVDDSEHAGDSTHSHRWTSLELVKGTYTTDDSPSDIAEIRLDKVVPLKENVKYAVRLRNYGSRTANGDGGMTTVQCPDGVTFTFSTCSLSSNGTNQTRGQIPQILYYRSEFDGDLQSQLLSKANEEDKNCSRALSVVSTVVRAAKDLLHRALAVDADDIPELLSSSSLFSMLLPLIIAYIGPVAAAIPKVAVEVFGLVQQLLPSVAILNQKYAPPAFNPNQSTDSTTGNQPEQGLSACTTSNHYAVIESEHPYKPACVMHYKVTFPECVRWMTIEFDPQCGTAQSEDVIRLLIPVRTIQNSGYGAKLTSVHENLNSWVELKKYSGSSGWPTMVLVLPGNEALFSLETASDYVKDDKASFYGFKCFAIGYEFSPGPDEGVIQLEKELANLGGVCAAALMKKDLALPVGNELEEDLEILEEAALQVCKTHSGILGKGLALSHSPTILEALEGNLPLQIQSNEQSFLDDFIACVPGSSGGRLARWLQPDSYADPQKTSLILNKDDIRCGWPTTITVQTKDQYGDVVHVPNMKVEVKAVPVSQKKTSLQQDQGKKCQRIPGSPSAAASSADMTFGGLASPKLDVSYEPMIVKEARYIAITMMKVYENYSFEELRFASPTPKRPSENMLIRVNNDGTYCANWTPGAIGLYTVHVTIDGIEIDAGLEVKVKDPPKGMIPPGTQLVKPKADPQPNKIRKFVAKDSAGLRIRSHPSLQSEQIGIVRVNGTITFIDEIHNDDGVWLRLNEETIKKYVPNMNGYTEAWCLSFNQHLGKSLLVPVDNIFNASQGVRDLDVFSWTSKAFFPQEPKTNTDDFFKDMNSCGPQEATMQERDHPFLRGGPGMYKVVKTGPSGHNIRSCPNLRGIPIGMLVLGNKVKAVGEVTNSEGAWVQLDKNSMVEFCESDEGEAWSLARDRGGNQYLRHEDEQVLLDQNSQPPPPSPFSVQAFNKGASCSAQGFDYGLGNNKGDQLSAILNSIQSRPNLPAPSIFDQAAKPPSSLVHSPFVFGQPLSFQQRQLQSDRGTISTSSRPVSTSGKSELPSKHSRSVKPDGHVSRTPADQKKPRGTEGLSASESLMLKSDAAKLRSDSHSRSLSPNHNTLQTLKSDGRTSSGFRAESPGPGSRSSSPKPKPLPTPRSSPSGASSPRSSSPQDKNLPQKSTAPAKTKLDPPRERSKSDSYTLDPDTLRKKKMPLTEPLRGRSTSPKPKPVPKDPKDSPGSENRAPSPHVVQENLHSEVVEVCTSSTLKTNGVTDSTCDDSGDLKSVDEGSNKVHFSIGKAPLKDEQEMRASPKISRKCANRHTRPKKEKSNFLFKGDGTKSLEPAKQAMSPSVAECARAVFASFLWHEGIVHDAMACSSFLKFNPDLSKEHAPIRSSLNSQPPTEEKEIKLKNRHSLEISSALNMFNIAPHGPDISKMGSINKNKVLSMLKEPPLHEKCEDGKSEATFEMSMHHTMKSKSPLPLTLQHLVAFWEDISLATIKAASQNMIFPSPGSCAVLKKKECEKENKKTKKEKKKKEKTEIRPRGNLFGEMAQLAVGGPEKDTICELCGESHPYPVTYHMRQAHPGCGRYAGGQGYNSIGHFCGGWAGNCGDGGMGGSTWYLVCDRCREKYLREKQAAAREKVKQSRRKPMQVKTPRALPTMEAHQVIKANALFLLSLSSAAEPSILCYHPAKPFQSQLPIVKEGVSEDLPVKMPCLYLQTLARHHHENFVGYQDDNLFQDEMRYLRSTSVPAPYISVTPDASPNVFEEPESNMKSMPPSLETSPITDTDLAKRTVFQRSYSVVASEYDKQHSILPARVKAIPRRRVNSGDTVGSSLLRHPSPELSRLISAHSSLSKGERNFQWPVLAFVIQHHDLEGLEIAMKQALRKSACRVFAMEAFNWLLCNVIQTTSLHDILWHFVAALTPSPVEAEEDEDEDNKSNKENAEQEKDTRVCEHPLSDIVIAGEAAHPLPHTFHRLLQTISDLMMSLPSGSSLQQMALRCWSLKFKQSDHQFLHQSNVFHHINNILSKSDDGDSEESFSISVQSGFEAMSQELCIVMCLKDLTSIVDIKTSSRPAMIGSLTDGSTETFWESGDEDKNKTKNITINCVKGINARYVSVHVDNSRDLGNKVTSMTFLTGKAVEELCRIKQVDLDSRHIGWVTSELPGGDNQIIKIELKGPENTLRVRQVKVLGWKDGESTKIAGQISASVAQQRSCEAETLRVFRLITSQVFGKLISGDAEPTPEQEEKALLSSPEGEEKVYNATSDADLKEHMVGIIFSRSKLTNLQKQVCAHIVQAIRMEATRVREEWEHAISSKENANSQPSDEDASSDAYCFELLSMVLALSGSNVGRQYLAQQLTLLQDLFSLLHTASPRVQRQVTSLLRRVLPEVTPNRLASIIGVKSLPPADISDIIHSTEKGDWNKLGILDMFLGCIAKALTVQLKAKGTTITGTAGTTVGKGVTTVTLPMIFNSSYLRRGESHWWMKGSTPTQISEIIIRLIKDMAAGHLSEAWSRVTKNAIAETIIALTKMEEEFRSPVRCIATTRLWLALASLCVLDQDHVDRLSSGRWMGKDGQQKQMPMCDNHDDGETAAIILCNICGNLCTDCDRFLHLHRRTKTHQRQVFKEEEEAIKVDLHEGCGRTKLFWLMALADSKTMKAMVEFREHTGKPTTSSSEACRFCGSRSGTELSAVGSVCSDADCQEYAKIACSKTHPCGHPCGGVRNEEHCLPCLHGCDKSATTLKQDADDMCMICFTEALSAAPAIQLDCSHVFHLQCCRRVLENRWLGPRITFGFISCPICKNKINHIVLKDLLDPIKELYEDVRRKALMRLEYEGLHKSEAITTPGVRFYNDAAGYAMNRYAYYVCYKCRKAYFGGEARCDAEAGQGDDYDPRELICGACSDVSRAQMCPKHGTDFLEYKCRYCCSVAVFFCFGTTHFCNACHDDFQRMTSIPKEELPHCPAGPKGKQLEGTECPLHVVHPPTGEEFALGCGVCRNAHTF
UniProt P97471: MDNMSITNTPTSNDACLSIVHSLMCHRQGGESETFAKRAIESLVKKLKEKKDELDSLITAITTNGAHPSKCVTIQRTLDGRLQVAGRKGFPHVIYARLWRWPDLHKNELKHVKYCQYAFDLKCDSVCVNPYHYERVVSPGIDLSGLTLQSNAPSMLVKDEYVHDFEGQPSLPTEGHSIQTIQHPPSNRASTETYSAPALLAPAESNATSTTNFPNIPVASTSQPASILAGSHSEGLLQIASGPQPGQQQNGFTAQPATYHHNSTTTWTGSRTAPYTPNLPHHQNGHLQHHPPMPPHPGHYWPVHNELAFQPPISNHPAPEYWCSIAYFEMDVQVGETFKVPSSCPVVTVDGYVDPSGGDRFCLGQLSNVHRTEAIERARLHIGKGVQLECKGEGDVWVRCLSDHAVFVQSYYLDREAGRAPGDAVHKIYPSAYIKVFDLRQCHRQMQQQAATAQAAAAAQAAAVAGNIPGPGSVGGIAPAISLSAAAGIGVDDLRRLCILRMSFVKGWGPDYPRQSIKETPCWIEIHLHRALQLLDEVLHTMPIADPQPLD

Assays:
[1] = molecular target: PDZ and LIM domain 7 (mouse (endogenous in SVFs, mature adipocytes, H5V)) (UniProt Q3TJD7); assay: co-IP; endogenous proteins in lysates of the murine microvascular endothelial cell line H5V, Protein A/G resin, immunoblot
[2] = molecular target: PDZ and LIM domain 7 (mouse (endogenous in SVFs, mature adipocytes, H5V)) (UniProt Q3TJD7); assay: co-IP; endogenous proteins in lysates of mature adipocytes, Protein A/G resin, immunoblot
[3] = molecular target: PDZ and LIM domain 7 (mouse (endogenous in SVFs, mature adipocytes, H5V)) (UniProt Q3TJD7); assay: co-IP; endogenous proteins in lysates of mouse SVFs (Pierce IP Lysis Buffer), antibody overnight at 4 °C, Protein A/G resin, immunoblot; some panels after ANXA1 siRNA, PDLIM7 siRNA or NC siRNA for 48 h and 10 µM MG132 for 6 h
[4] = molecular target: T1, Annexin A1 (mouse (endogenous in SVFs, mature adipocytes, H5V)) (UniProt P10107); assay: co-IP; endogenous proteins in lysates of the murine microvascular endothelial cell line H5V, Protein A/G resin, immunoblot
T1 sequence: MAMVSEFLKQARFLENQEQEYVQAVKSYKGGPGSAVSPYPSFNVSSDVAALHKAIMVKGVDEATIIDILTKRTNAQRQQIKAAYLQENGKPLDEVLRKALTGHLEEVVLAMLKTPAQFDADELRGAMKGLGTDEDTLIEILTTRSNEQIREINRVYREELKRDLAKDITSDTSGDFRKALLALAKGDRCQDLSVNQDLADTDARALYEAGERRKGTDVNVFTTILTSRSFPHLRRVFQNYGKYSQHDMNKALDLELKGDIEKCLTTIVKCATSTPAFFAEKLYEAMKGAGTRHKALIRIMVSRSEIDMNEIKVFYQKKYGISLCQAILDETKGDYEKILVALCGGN

[5] = molecular target: T1, Annexin A1 (mouse (endogenous in SVFs, mature adipocytes, H5V)); assay: co-IP; endogenous proteins in lysates of mature adipocytes, Protein A/G resin, immunoblot
[6] = molecular target: T1, Annexin A1 (mouse (endogenous in SVFs, mature adipocytes, H5V)); assay: co-IP; endogenous proteins in lysates of mouse SVFs (Pierce IP Lysis Buffer), antibody overnight at 4 °C, Protein A/G resin, immunoblot; some panels after ANXA1 siRNA, PDLIM7 siRNA or NC siRNA for 48 h and 10 µM MG132 for 6 h
[7] = molecular target: MYC binding protein 2 (mouse (endogenous in SVFs, mature adipocytes, H5V)) (UniProt Q7TPH6); assay: co-IP; endogenous proteins in lysates of the murine microvascular endothelial cell line H5V, Protein A/G resin, immunoblot
[8] = molecular target: MYC binding protein 2 (mouse (endogenous in SVFs, mature adipocytes, H5V)) (UniProt Q7TPH6); assay: co-IP; endogenous proteins in lysates of mature adipocytes, Protein A/G resin, immunoblot
[9] = molecular target: MYC binding protein 2 (mouse (endogenous in SVFs, mature adipocytes, H5V)) (UniProt Q7TPH6); assay: co-IP; endogenous proteins in lysates of mouse SVFs (Pierce IP Lysis Buffer), antibody overnight at 4 °C, Protein A/G resin, immunoblot; some panels after ANXA1 siRNA, PDLIM7 siRNA or NC siRNA for 48 h and 10 µM MG132 for 6 h

binding [1]: binds | binding [2]: binds | binding [3]: binds
Substance: MYC binding protein 2 (from UniProt Q7TPH6 1-4749) (enzyme)

binding [4]: binds | binding [5]: binds | binding [6]: binds
Substance: PDZ and LIM domain 7 (from UniProt Q3TJD7 1-457)

binding [7]: binds | binding [8]: binds | binding [9]: binds
Substance: SMAD family member 4 (from UniProt P97471 1-551)
